{"source": "PubChem BioAssay AID540256", "about": "(National Center for Advancing Translational Sciences (NCATS), 2011)", "note": "Where “and” joins values, the source holds several entries; their conditions need not be identical. Identical values can stand only once. In all, about 300,000 compounds went through this assay and about 3,700 (1.2%) were called active. The inconclusive results got no clear call from the source; some entries with a clear call stand among them for comparison. Calls follow the shape of the full dose curve; tested in HEK293 cells. Potencies beside an inconclusive call are fits to weak or partial responses and may not hold up. % is scaled to controls: 0 for no effect and ±100 for the full control effect; potency is read from the fitted curve at half-maximal effect.", "data": [{"test": "qHTS for Inhibitors of binding or entry into cells for Lassa Virus; also: nearly all actives have a fitted effect of over 50% in size", "conditions": "Lassa virus pseudotype entry inhibition, cell reporter; activity change, negative = inhibition: at 37.9 µM (top of the series) unless noted", "values": [{"smiles": "CCCNC(=O)C1CCN(C(=O)N2CC(C)Oc3ccccc32)CC1", "note": "(configuration not stated)", "Potency": "inconclusive: 6.31 µM [inhibitor, single point]"}, {"smiles": "O=C(Nc1ccc2c(c1)OCO2)c1cccn(Cc2ccc(F)cc2)c1=O", "Potency": "inconclusive: 3.16 µM [inhibitor, single point]"}, {"smiles": "O=C(Nc1ccccc1OC(F)(F)F)c1ccc([N+](=O)[O-])cc1", "activity change, negative = inhibition": "inactive: 1.55%"}, {"smiles": "CCn1ccc2cc(S(=O)(=O)N3CCCN(C(=O)Nc4cccc(SC)c4)CC3)ccc21", "Potency": "inconclusive: 10 µM [inhibitor, partial curve, poor fit]"}, {"smiles": "O=C(CCc1nnc(Cc2ccc(-c3ccccc3)cc2)o1)NCC1CC1", "Potency": "inconclusive: 7.08 µM [inhibitor, partial curve, poor fit]"}, {"smiles": "Cc1ccc(-c2nc3ccccc3c(C(=O)NCc3cccs3)c2C)cc1", "Potency": "inconclusive: 1 µM [inhibitor, full curve, poor fit]"}, {"smiles": "O=C(OC1CO[C@H]2O[C@@H]1[C@H](OC(=O)c1ccccc1)[C@H]2OC(=O)c1ccccc1)c1ccccc1", "note": "(some centres not stated)", "Potency": "inconclusive: 11.2 µM [inhibitor, partial curve, poor fit]"}, {"smiles": "Cc1ccc(CSCCNC(=O)C2CCN(S(=O)(=O)Cc3ccccc3)CC2)cc1", "Potency": "inconclusive: 7.08 µM [activator, partial curve]"}, {"smiles": "CC(/C=C/c1ccccc1)=N\\NC(=O)c1cc(C)[nH]n1", "activity change, negative = inhibition": "inactive: 0.629%"}, {"smiles": "Cc1cccc(N2CCN(C(=O)c3cccc(N4C(=O)C5C6C=CC(C6)C5C4=O)c3)CC2C)c1", "note": "(configuration not stated)", "Potency": "inconclusive: 11.2 µM [inhibitor, partial curve, poor fit]"}, {"smiles": "Cc1ccc(/C=C2/C(=O)NC(=O)N(CC3CCCO3)C2=O)s1", "note": "(configuration not stated)", "activity change, negative = inhibition": "inactive: 6.57%"}, {"smiles": "CCC(C#CCN1CCCCC1)(CC)OCCC#N", "activity change, negative = inhibition": "inactive: 17.1%"}, {"smiles": "C=CCc1cccc2cc(C(=O)Nc3ccccc3C(=O)O)c(=O)oc12", "Potency": "inconclusive: 6.31 µM [inhibitor, partial curve, poor fit]"}, {"smiles": "O=C(CNC(=O)c1cccs1)OCC(=O)c1ccc([N+](=O)[O-])cc1", "activity change, negative = inhibition": "inactive: 8.73%"}, {"smiles": "COc1ccccc1NC(=O)CSc1ccc(-c2ccccn2)nn1", "Potency": "inconclusive: 3.98 µM [inhibitor, partial curve, poor fit] and inconclusive: 20 µM [inhibitor, single point]"}, {"smiles": "O=C(c1ccccc1-n1cccn1)N1CCc2c([nH]c3ccccc23)C1c1ccccn1", "note": "(configuration not stated)", "Potency": "inconclusive: 35.5 µM [inhibitor, partial curve, poor fit]"}, {"smiles": "CN1CC(C(=O)c2ccc(Cl)cc2)C(c2ccc(N(C)C)cc2)C1", "note": "(configuration not stated)", "Potency": "inconclusive: 29.1 µM [inhibitor, single point]"}, {"smiles": "Cc1[nH]c2ccccc2c1/C=C(\\C#N)C(=O)NC1CC1", "activity change, negative = inhibition": "inactive: 0.538% [at 46.1 µM]"}, {"smiles": "O=[N+]([O-])c1cc([N+](=O)[O-])c2c(=Nc3ccccc3)n(-c3ccccc3)n(O)c2c1", "Potency": "inconclusive: 28.2 µM [inhibitor, single point]"}, {"smiles": "CCN1C(=O)[C@H]2[C@H]3[C@H](O)[C@H](O)C/C(=N\\OC[C@@H](C)[C@H](OCc4ccccc4)C(C)C)[C@@H]3CC[C@H]2C1=O", "Potency": "inconclusive: 20.6 µM [inhibitor, single point]"}, {"smiles": "CC1(C)CC(NCc2ccccc2)CCO1", "note": "(configuration not stated)", "Potency": "inconclusive: 35.5 µM [activator, single point]"}, {"smiles": "CC(=O)NC(C1C(=O)CC(C)(C)CC1=O)(C(F)(F)F)C(F)(F)F", "Potency": "inconclusive: 32.6 µM [activator, partial curve, poor fit]"}, {"smiles": "Cc1ccc(OCC(=O)N/N=C/c2cc([N+](=O)[O-])ccc2N2CCCCC2)cc1", "Potency": "inconclusive: 35.5 µM [inhibitor, single point]"}, {"smiles": "O=C(NCc1ccco1)c1ccc2ccccc2c1", "Potency": "inconclusive: 5.8 µM [inhibitor, partial curve, poor fit]"}, {"smiles": "O=C(CCl)N(O)c1ccc(C=Cc2ccccc2)cc1", "Potency": "active: 8.91 µM"}, {"smiles": "COc1ccc(OC)c(-c2csc(NC(=O)CSc3ccc([N+](=O)[O-])cc3)n2)c1", "Potency": "inconclusive: 2 µM [inhibitor, partial curve, poor fit]"}, {"smiles": "CCOC(=O)c1cc(-c2ccccc2)nc2c1c(C)nn2-c1ccccn1", "activity change, negative = inhibition": "inactive: -21.8%"}, {"smiles": "C=CCn1c(O)c(CN2CCOCC2)c(C)c(C#N)c1=O", "activity change, negative = inhibition": "inactive: -1.81%"}, {"smiles": "C=CCN(CC=C)S(=O)(=O)c1ccc(NC(=S)NC(=O)/C=C/c2ccc(C)cc2)cc1", "Potency": "inconclusive: 3.55 µM [inhibitor, full curve]"}, {"smiles": "Cc1cc2oc(C(=O)Nc3ccc(S(=O)(=O)N4CCC(C)CC4)cc3)cc(=O)c2cc1C", "activity change, negative = inhibition": "inactive: 4.31% [at 46.1 µM]"}, {"smiles": "CC(=O)O[C@@H]1C[C@H]2C(C)(C)C(=O)C=C[C@]2(C)[C@H]2CC[C@@]3(C)[C@H](c4ccoc4)OC(=O)[C@H]4O[C@]43[C@@]21C", "Potency": "active: 18.4 µM"}, {"smiles": "O=C(Cc1coc2ccc3ccccc3c12)Nc1nnc(C2CC2)s1", "Potency": "active: 2.51 µM"}, {"smiles": "COc1cc(C2C(C(=O)Nc3ccc(Cl)cc3)=C(C)Nc3nc(SC)nn32)cc(OC)c1OC", "note": "(configuration not stated)", "Potency": "inconclusive: 3.16 µM [inhibitor, single point]"}, {"smiles": "COc1ccc(Nc2nc3ccc(C)cn3c(=O)c2/C=N/O)cc1", "Potency": "inconclusive: 6.31 µM [inhibitor, single point]"}, {"smiles": "CCOc1ccc(CCNC(=O)c2cc3sccc3n2CC)cc1OCC", "Potency": "active: 14.6 µM"}, {"smiles": "Fc1ccc(CSc2nncn3c2cc2occc23)c(Cl)c1", "activity change, negative = inhibition": "inactive: -20.7% [at 46.1 µM]"}, {"smiles": "CC(=O)C1C(=O)CC(C)(O)C(C(C)=O)C1c1ccccc1", "note": "(configuration not stated)", "activity change, negative = inhibition": "inactive: 9.79%"}, {"smiles": "CN(c1ccc(C(=O)NCCSC(C)(C)C)cc1)S(=O)(=O)c1ccccc1", "Potency": "active: 23.1 µM"}, {"smiles": "Cc1onc(-c2ccccc2)c1CNC(=O)Nc1cccc(Cl)c1", "Potency": "inconclusive: 35.5 µM [inhibitor, single point]"}, {"smiles": "COc1ccc(NC(=O)COC(=O)c2ccc(O)cc2)c([N+](=O)[O-])c1", "Potency": "inconclusive: 35.5 µM [inhibitor, single point]"}, {"smiles": "COc1ccc(Cn2c(-c3ccc(OC)cc3)n[nH]c2=S)cc1", "Potency": "inconclusive: 12.6 µM [inhibitor, partial curve]"}, {"smiles": "Cc1cccc(C)c1NC(=O)CSc1nnc([C@@H]2CCCN2C(=O)OC(C)(C)C)o1", "Potency": "inconclusive: 0.651 µM [activator, single point]"}, {"smiles": "CC1=C(C(N)=O)C(c2cccc(Br)c2)n2nc(SCc3ccccc3Cl)nc2N1", "note": "(configuration not stated)", "activity change, negative = inhibition": "inactive: -6.85% [at 46.1 µM]"}, {"smiles": "CC1CCN(C(=O)c2ccc(S(=O)(=O)Cc3cccc(F)c3)c([N+](=O)[O-])c2)CC1", "activity change, negative = inhibition": "inactive: -5.13%"}, {"smiles": "COc1cccc(/C=N/N2C(=O)NC3(CCCCC3)C2=O)c1O", "Potency": "inconclusive: 0.398 µM [inhibitor, partial curve, poor fit]"}, {"smiles": "CC(=O)Nc1ccc(S(=O)(=O)N2CCc3cc4c(cc3C2C)OCCCO4)cc1", "note": "(configuration not stated)", "Potency": "inconclusive: 1.78 µM [inhibitor, full curve, poor fit]"}, {"smiles": "O=C(CSc1nnc(-c2c[nH]c3ccccc23)o1)N(Cc1ccccc1)c1ccc(F)cc1", "Potency": "inconclusive: 29.1 µM [inhibitor, single point]"}, {"smiles": "COc1cccc(/C=C2\\SC(=S)N(CCC(=O)NCCc3ccc(O)cc3)C2=O)c1", "Potency": "inconclusive: 12.6 µM [inhibitor, partial curve, poor fit]"}, {"smiles": "COc1ccc(OC)c(Nc2cc(C(=O)NCCCN3CCOCC3)c3ccccc3n2)c1", "Potency": "inconclusive: 0.891 µM [activator, full curve, poor fit]"}, {"smiles": "N#Cc1cccnc1N1CCN(C(=O)c2ccco2)CC1", "Potency": "inconclusive: 12.6 µM [activator, partial curve, poor fit]"}, {"smiles": "CCOc1ccccc1NC1=C(Cl)C(=O)N(Cc2ccccc2)C1=O", "Potency": "inconclusive: 35.5 µM [inhibitor, single point]"}, {"smiles": "COc1ccc(C(C)(C)C)cc1NC(=O)CCCN1C(=O)NC(C)(C)C1=O", "Potency": "inconclusive: 7.08 µM [inhibitor, partial curve]"}, {"smiles": "CSc1ccccc1NC(=O)COC(=O)c1ccccc1Cc1ccccc1", "activity change, negative = inhibition": "inactive: -7.6%"}, {"smiles": "CCCCCCCCCCCCCCCC[N+](C)(C)Cc1ccc(F)cc1", "Potency": "inconclusive: 31.6 µM [inhibitor, single point]"}, {"smiles": "CCOc1ccc(C(=O)Nc2cccc(NC(=O)c3ccc(Cl)cc3Cl)c2)cc1", "activity change, negative = inhibition": "inactive: -20.9% [at 46.1 µM]"}, {"smiles": "CN(CC(=O)Nc1ccccc1Cl)C(=O)Cn1cnc2ccccc2c1=O", "activity change, negative = inhibition": "inactive: -0.979%"}, {"smiles": "O=C(c1cc(COc2ccc(F)c(F)c2)on1)N1CCN(C/C=C/c2ccccc2)CC1", "Potency": "inconclusive: 17.8 µM [inhibitor, single point]"}, {"smiles": "CCCCOc1ccccc1Cn1c(=O)sc2ccccc21", "Potency": "inconclusive: 31.6 µM [activator, single point]"}, {"smiles": "CCc1ccccc1NC(=O)C(CC)Sc1nc2cc3c(cc2c(=O)n1Cc1ccco1)OCO3", "note": "(configuration not stated)", "Potency": "inconclusive: 23.1 µM [inhibitor, single point]"}, {"smiles": "NC(=O)Nc1ccc(Cl)cc1", "activity change, negative = inhibition": "inactive: -13.7%"}, {"smiles": "O=C(CNC(=O)c1cccc(F)c1)OCC(=O)N1CCCc2ccccc21", "Potency": "inconclusive: 5.01 µM [activator, partial curve, poor fit]"}, {"smiles": "O=C(C1CCCCC1)N1CCN(c2ccnc3cc(Cl)ccc23)CC1", "Potency": "active: 7.94 µM"}, {"smiles": "NS(=O)(=O)c1ccc(CCNC(=O)CSc2ccc(Cl)cc2Cl)cc1", "activity change, negative = inhibition": "inactive: -14.7%"}, {"smiles": "O=C(Nc1nc2ccccc2s1)c1ccc(OCC2CCCO2)cc1", "note": "(configuration not stated)", "Potency": "active: 10 µM"}, {"smiles": "Cc1ccc(C(=O)Nc2ncc(C)s2)s1", "Potency": "active: 5.01 µM"}, {"smiles": "COc1cc([N+](=O)[O-])ccc1NC(=O)N1CCC2(CC1)Nc1ccccc1-n1cccc12", "activity change, negative = inhibition": "inactive: -0.888% [at 46.1 µM]"}, {"smiles": "O=C(N/N=C/C=C/c1ccc([N+](=O)[O-])cc1)C1COc2ccccc2O1", "note": "(configuration not stated)", "Potency": "inconclusive: 1 µM [inhibitor, single point]"}]}]}
